According to the supplement of paper PMC8104966:
Several values for one entry are separate records, joined by “and”; a condition that tells them apart may be missing. Equal values may be shown once. ± gives the standard deviation of the averaged measurements. The list shows a part of the results. Single values are uncertain here, since repeats match poorly.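 U2OS cells carrying ACE2 were mixed with U2OS cells carrying full-length spike, and fusion was scored by imaging as the share of nuclei showing both cell types' fluorescent markers. A compound counts as an inhibitory hit when it is non-toxic and its fusion z-score falls below -3, meaning more than three standard deviations below the plate's DMSO wells.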

test system: U2OS ACE2 x SARS-CoV-2 spike co-culture; assay: cell-cell fusion (fraction fused) z-score vs plate DMSO control; higher = more fusion; conditions: 30 µM; 5 h; toxicity class: non-toxic, passed QC

Structure (SMILES)	cell-cell fusion (z-score)
CCCCOc1cc(C(=O)NCCN(CC)CC)c2ccccc2n1.Cl [Dibucaine hydrochloride]	inactive: -1.56
CN[C@@H]1[C@H](OC2[C@H](O[C@H]3[C@H](O)[C@@H](O)[C@H](NC(=N)N)[C@@H](O)[C@@H]3NC(=N)N)O[C@@H](C)[C@]2(O)C=O)O[C@@H](CO)[C@H](O)[C@H]1O.O=S(=O)(O)O (some centres undefined) [STREPTOMYCIN SULFATE [5mM; 10% aq DMSO + 5mM ethanolamine]]	inactive: 2.71
CN(C)CCCN1c2ccccc2Sc2ccc(C(F)(F)F)cc21.Cl [Triflupromazine hydrochloride]	inactive: -0.949
O=c1c2ccccc2[se]n1-c1ccccc1	inactive: 2.44
CCN(CC)CCOc1ccc2c(c1)C(=O)c1cc(OCCN(CC)CC)ccc1-2	inactive: 2.82
CN(C)c1ccc(O)c2c1C[C@H]1C[C@H]3[C@H](N(C)C)C(O)=C(C(N)=O)C(=O)[C@@]3(O)C(O)=C1C2=O.Cl	inactive: 1.6
CN(C)CC[C@@H](c1ccc(Br)cc1)c1ccccn1.O=C(O)/C=C\C(=O)O [(+)-Brompheniramine maleate]	inactive: 2.42
CC(=O)N[C@@H](Cc1ccccc1)C(=O)O	inactive: 1.73
CCN(CC)CCCC(C)Nc1nc(C)cc(Nc2ccc3nc(C)cc(N)c3c2)n1.Cl.Cl.Cl (centres undefined)	inactive: 1.75
COc1cc(CNC(=O)CCCC/C=C/C(C)C)ccc1O	inactive: 3.35
COc1ccc(C(CN(C)C)C2(O)CCCCC2)cc1.Cl (centres undefined) [Venlafaxine hydrochloride]	inactive: 2.66
CC(C)[N+]1(C)C2CC[C@H]1C[C@@H](OC(=O)C(CO)c1ccccc1)C2.[Br-] (some centres undefined)	inactive: 0.318
O=c1c2cc(O)c(O)cc2oc2cc(O)c(C3O[C@H](CO)[C@H](O)[C@@H](O)[C@H]3O)c(O)c12 (some centres undefined)	inactive: 3.22
CCCCc1ncc(/C=C(\Cc2cccs2)C(=O)O)n1Cc1ccc(C(=O)O)cc1.CS(=O)(=O)O [Eprosartan mesylate]	inactive: 2.21
CCCC(C)(COC(N)=O)COC(=O)NC(C)C (centres undefined)	inactive: 1.73
O=C(O)c1ccccc1Nc1ccccc1	inactive: 2.8
CC(C)C(=O)OCC(=O)[C@@]12O[C@H](C3CCCCC3)O[C@@H]1C[C@H]1[C@@H]3CCC4=CC(=O)C=C[C@]4(C)[C@H]3[C@@H](O)C[C@@]12C [Ciclesonide]	inactive: 1.4
CC1=NCCC2c3ccc(O)cc3NC12 (centres undefined)	inactive: 2.92
Cl.c1ccc([C@H]2CN3CCSC3=N2)cc1 [Levamisole hydrochloride]	inactive: 2.96
C#C[C@]1(O)CCC2C3CCC4=C(CCC(=O)C4)C3CC[C@@]21C (some centres undefined)	inactive: 0.5
Cl.NCCCC(N)(C(=O)O)C(F)F (centres undefined)	inactive: 0.766
CC(C)=CCC1=C(O)C(=O)c2ccccc2C1=O	inactive: 0.349
CC[C@@H](C(N)=O)N1CCCC1=O [Levetiracetam]	inactive: 2.91

Some of the entries so far, as comma-separated lines:
Structure (SMILES),cell-cell fusion (z-score)
CCN(CC)CCOc1ccc2c(c1)C(=O)c1cc(OCCN(CC)CC)ccc1-2,inactive: 2.82
CN(C)c1ccc(O)c2c1C[C@H]1C[C@H]3[C@H](N(C)C)C(O)=C(C(N)=O)C(=O)[C@@]3(O)C(O)=C1C2=O.Cl,inactive: 1.6
CN(C)CC[C@@H](c1ccc(Br)cc1)c1ccccn1.O=C(O)/C=C\C(=O)O [(+)-Brompheniramine maleate],inactive: 2.42
CC(=O)N[C@@H](Cc1ccccc1)C(=O)O,inactive: 1.73
CCN(CC)CCCC(C)Nc1nc(C)cc(Nc2ccc3nc(C)cc(N)c3c2)n1.Cl.Cl.Cl (centres undefined),inactive: 1.75

Next part:

Structure (SMILES)	cell-cell fusion (z-score)
CN1CC[C@H](c2c(O)cc(O)c3c(=O)cc(-c4ccccc4Cl)oc23)[C@H](O)C1.Cl [Flavopiridol HCl]	inactive: 0.723
CN1CC[C@H](c2c(O)cc(O)c3c(=O)cc(-c4ccccc4Cl)oc23)[C@H](O)C1.Cl [Flavopiridol hydrochloride]	inactive: 1.06
CC(CN1c2ccccc2Sc2ccccc21)N(C)C (centres undefined) [Promethazine]	inactive: 1.4
COc1ccc(-c2coc3cc(O)ccc3c2=O)c(OC)c1	inactive: 1.91
CC(C)C(=O)Nc1ccc([N+](=O)[O-])c(C(F)(F)F)c1 [Flutamide (Eulexin)]	inactive: 2.04
COc1cc([C@@H]2c3cc4c(cc3C(OC3O[C@@H]5COC(C)O[C@H]5[C@H](O)[C@H]3O)C3COC(=O)[C@@H]32)OCO4)cc(OC)c1O (some centres undefined)	inactive: 2.52
O=C(O)COC(=O)Cc1ccccc1Nc1c(Cl)cccc1Cl	inactive: 1.46
CCN(CCO)CCCOc1ccc2c(Nc3cc(CC(=O)Nc4cccc(F)c4)n[nH]3)ncnc2c1 [Barasertib (AZD1152-HQPA)]	inactive: 2.36
O=c1oc2ccccc2c(O)c1Cc1c(O)c2ccccc2oc1=O [Dicumarol]	inactive: 1.39
Cc1ccc([N+](=O)[O-])cc1S(=O)(=O)N(C)/N=C/c1cnc2ccc(Br)cn12.Cl	inactive: 1.39
COc1ccc(C[C@@H](C)NC[C@H](O)c2ccc(O)c(NC=O)c2)cc1.COc1ccc(C[C@H](C)NC[C@@H](O)c2ccc(O)c(NC=O)c2)cc1.O=C(O)/C=C/C(=O)O [Formoterol Hemifumarate]	inactive: -0.748
CCCN1CCC[C@@H](c2cccc(S(C)(=O)=O)c2)C1.Cl	inactive: 2.69
Br.CN1CCC[C@@H]1Cc1c[nH]c2ccc(CCS(=O)(=O)c3ccccc3)cc12 [Eletriptan HBr]	inactive: 2.96
O=C(O)[C@H](O)[C@@H](O)C(=O)O.c1cnc2cc3c(cc2n1)[C@@H]1CNC[C@H]3C1 [Varenicline]	inactive: 3.43
Cc1ccc(=O)n(-c2ccccc2)c1 [Pirfenidone]	inactive: 3.73
CC(C)=CCCC1(C)C=Cc2c(O)c3c(c(CC=C(C)C)c2O1)OC12C(=CCCC1C(C)(C)O[C@@]2(C/C=C(\C)C(=O)O)C(=O)O)C3=O (some centres undefined)	inactive: 2.52
Cl.O=C(c1ccc(OCCN2CCCCC2)cc1)c1c(-c2ccc(O)cc2)sc2cc(O)ccc12 [Raloxifene hydrochloride]	inactive: 4.7
CC[C@H](C)C(=O)O[C@H]1CCC=C2C=C[C@H](C)[C@H](CC[C@@H]3C[C@@H](O)CC(=O)O3)[C@H]21 [Mevastatin]	inactive: 1.48
NC(=O)Cc1cccc(C(=O)c2ccccc2)c1N [Nepafenac]	inactive: 2.11
Nc1ccn([C@H]2CC[C@@H](CO)O2)c(=O)n1 [Zalcitabine]	inactive: 2.91
CC(C)COC(=O)OCN1C(=O)CN(CCN2CC(=O)N(COC(=O)OCC(C)C)C(=O)C2)CC1=O [Sobuzoxane]	inactive: 1.23
Cc1ccc(-n2nc(C(C)(C)C)cc2NC(=O)Nc2ccc(OCCN3CCOCC3)c3ccccc23)cc1 [BIRB 796 (Doramapimod)]	-3.77 ± 3.3
CNC1(C)C2CCC(C2)C1(C)C.Cl (centres undefined) [Mecamylamine hydrochloride]	inactive: 1.42

Structure (SMILES)	cell-cell fusion (z-score)
CNC1(C)C2CCC(C2)C1(C)C.Cl (centres undefined)	inactive: 0.957
O=C([O-])c1cc(=O)c2c(OCC(O)COc3cccc4oc(C(=O)[O-])cc(=O)c34)cccc2o1.[Na+].[Na+]	inactive: 1.34
C[N+]12CC[C@@]34c5ccccc5N5C(=O)CC6OCC=C(C1)[C@H](CC32)[C@@H]6C54.[I-] (some centres undefined)	inactive: 2.59
COc1cc(OC)c2c(=O)c(-c3ccccc3OC)coc2c1	inactive: 4.57
Cc1ccc(C(=O)c2ccc(CC(=O)[O-])n2C)cc1.[Na+]	inactive: 1.83
O=C(Nc1ccc([N+](=O)[O-])cc1Cl)c1cc(Cl)ccc1O [Niclosamide]	inactive: 2.42
O=C(/C=C/c1ccc(O)c(O)c1)OCCc1ccccc1	active: -4.58
Cn1cc(-c2ccc3nnc(C(F)(F)c4ccc5ncccc5c4)n3n2)cn1	inactive: 0.499
COc1ccc(-c2coc3cc(O)ccc3c2=O)c(O)c1O	inactive: 2.11
N#CC(C#N)=C/C(N)=C(/C#N)c1cc(O)c(O)c(O)c1 [Tyrphostin 51]	inactive: 5.08
COc1ccc2[nH]c3c(c2c1)CCNC3 [6-Methoxy-1,2,3,4-tetrahydro-9H-pyrido[3,4b] indole]	inactive: 2.55
COc1cc(Cc2cnc(N)nc2N)cc(OC)c1OC [Trimethoprim]	inactive: 2.75
O=c1[nH]c2ccccc2n1CCN1CCN(c2cccc(C(F)(F)F)c2)CC1 [Flibanserin]	inactive: 1.2
COC(=O)[C@@H](N)Cc1ccc(O)c(O)c1.Cl [L-3,4-Dihydroxyphenylalanine methyl ester hydrochloride]	inactive: 1.05
Cl.NNC(N)=O [Semicarbazide hydrochloride]	inactive: 1.56
CS(=O)c1ccc(-c2nc(-c3ccc(F)cc3)c(-c3ccncc3)[nH]2)cc1 (centres undefined)	inactive: 1.55 and inactive: 0.144
Cl.NCCc1ccc(O)c(O)c1 [Dopamine hydrochloride]	inactive: 1.09
CC(=N)NCCCCC(N)C(=O)O.Cl (stereo in doubt) [L-N6-(1-Iminoethyl)lysine hydrochloride]	inactive: 3.01
CC(=O)OC1CCC2C3CCc4cc(O)ccc4C3CCC12C (centres undefined)	inactive: 2.32
O=C(O)c1cc(O)c2cccc(O)c2n1	inactive: 2.8
C=C1[C@H](CO)[C@@H](O)C[C@@H]1n1cnc2c(=O)nc(N)[nH]c21.O [Entecavir hydrate]	inactive: 1.19
O=C(O)[C@@H](S)[C@@H](S)C(=O)O [Succimer]	inactive: -0.86
C[C@]12[C@H](O)CC3C(CC[C@@H]4C[C@@H](O)CC[C@]34C)[C@@]1(O)CC[C@@H]2C1=CC(=O)OC1 (some centres undefined)	inactive: 0.415
